The values below are quoted from earlier work in patent publication US5424329A, “Indole-2-carboxamides as inhibitors of cell adhesion” (Warner-Lambert Company, priority 1993, dated 1995).

Structures are written as SMILES.

For series [1], the system named is TPA-mediated CD4 down regulation in HIV-infected cells. To be noted: Hamamoto et al. 1989; cited from earlier work.
Series [2] has as its system TPA-mediated HIV expression in HIV-infected cells. As to conditions: Hamamoto et al. 1989; cited from earlier work.

On to `CN[C@@H]1C[C@H]2O[C@@](C)([C@@H]1OC)n1c3ccccc3c3c4c(c5c6ccccc6n2c5c31)C(=O)NC4` [Staurosporine], for which the “inhibition of TPA-mediated CD4 down regulation” value in series [1] is listed as “effective TPA inhibitor”. Also, the “inhibition of TPA-mediated augmentation of HIV expression” value in series [2] is “effective TPA inhibitor”.
